Experimental data taken from the supplement of paper PMC10849652.
This is one part of the list. Residues, ends and D or L forms follow the SMILES beside them. *: point of attachment. Cbz = O=C(OCc1ccccc1)*

Sequences of proteins named here, by UniProt entry; tags and fusion partners are left off. A change or cut given only in a name is not applied to a line headed by its entry.
UniProt Q9H0A0: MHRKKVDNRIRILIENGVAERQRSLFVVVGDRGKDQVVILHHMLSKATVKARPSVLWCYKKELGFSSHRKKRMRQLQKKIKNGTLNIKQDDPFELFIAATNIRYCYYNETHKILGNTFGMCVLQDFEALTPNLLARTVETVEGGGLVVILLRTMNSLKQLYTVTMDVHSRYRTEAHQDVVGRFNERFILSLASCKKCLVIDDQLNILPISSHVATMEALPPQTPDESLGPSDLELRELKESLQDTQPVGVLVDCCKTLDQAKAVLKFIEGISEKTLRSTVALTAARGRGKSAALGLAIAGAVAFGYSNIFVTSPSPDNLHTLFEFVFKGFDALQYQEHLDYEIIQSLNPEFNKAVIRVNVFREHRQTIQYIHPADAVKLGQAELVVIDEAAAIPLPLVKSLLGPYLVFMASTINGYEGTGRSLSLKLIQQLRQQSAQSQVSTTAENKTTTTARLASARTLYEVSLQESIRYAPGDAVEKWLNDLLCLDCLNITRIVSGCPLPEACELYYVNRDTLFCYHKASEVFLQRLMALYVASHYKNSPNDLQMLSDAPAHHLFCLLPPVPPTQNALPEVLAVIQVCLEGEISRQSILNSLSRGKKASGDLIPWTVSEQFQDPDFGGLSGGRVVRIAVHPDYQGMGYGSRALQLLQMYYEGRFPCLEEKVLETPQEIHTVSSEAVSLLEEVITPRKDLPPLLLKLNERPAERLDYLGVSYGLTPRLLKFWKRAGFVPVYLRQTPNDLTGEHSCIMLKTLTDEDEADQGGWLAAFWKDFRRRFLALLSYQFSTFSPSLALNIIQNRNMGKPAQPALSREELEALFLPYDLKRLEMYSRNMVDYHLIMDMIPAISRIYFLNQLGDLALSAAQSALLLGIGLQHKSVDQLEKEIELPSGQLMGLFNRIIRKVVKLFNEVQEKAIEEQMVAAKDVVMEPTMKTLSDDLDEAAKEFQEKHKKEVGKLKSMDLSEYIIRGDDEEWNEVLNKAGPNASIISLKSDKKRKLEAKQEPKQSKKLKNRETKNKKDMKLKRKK
UniProt O76041: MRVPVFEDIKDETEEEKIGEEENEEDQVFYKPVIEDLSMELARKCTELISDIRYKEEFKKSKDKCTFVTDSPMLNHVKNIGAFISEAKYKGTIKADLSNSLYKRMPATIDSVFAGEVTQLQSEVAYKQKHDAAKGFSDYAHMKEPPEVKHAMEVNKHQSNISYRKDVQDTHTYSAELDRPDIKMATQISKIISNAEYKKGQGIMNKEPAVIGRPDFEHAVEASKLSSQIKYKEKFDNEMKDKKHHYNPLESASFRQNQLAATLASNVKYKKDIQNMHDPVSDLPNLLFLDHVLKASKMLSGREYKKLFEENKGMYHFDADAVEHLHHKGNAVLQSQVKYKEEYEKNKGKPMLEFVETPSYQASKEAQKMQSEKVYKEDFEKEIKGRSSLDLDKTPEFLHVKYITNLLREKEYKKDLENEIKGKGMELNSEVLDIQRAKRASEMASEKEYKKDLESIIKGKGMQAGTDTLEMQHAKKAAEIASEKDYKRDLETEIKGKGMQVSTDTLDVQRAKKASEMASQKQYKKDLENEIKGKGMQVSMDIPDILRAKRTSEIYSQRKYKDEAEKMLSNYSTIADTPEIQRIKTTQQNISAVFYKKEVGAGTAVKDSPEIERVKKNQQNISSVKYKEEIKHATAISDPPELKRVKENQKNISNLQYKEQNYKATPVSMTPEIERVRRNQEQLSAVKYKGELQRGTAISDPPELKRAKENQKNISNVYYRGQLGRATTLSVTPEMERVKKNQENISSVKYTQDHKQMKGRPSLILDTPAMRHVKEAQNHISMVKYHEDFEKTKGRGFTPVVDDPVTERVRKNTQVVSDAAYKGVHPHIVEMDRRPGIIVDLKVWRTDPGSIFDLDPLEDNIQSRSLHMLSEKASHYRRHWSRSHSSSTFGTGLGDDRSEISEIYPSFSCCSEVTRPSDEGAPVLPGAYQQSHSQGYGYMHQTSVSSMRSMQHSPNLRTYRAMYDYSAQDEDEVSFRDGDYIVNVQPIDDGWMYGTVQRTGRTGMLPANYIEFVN
UniProt O95168, whole entry, looked up: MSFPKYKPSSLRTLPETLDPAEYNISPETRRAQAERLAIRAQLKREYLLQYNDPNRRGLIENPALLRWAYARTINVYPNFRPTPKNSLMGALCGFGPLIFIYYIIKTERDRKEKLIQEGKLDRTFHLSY
UniProt Q9Y375: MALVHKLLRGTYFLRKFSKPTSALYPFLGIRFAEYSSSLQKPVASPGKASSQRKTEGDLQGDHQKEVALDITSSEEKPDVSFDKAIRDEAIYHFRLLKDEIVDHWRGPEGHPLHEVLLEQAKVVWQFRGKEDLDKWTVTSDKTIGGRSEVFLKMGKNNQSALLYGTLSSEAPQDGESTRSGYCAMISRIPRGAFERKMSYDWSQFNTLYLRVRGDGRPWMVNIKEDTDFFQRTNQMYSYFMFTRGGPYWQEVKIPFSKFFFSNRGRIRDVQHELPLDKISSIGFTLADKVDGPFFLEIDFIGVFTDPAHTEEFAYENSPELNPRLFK
UniProt Q8NC96: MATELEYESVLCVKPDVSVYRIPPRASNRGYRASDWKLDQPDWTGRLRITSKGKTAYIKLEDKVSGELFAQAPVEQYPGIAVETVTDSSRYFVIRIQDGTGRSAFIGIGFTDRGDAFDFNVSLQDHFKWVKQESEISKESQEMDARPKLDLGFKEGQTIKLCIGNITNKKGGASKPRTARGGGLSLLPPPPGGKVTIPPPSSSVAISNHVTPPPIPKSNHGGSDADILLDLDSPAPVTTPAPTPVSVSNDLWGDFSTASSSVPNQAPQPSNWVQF
UniProt Q6NZ67, whole entry, looked up: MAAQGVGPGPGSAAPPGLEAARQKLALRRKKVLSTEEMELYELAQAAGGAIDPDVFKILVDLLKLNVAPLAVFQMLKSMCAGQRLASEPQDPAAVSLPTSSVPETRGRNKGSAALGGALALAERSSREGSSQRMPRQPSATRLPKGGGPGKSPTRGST
UniProt A2RRP1: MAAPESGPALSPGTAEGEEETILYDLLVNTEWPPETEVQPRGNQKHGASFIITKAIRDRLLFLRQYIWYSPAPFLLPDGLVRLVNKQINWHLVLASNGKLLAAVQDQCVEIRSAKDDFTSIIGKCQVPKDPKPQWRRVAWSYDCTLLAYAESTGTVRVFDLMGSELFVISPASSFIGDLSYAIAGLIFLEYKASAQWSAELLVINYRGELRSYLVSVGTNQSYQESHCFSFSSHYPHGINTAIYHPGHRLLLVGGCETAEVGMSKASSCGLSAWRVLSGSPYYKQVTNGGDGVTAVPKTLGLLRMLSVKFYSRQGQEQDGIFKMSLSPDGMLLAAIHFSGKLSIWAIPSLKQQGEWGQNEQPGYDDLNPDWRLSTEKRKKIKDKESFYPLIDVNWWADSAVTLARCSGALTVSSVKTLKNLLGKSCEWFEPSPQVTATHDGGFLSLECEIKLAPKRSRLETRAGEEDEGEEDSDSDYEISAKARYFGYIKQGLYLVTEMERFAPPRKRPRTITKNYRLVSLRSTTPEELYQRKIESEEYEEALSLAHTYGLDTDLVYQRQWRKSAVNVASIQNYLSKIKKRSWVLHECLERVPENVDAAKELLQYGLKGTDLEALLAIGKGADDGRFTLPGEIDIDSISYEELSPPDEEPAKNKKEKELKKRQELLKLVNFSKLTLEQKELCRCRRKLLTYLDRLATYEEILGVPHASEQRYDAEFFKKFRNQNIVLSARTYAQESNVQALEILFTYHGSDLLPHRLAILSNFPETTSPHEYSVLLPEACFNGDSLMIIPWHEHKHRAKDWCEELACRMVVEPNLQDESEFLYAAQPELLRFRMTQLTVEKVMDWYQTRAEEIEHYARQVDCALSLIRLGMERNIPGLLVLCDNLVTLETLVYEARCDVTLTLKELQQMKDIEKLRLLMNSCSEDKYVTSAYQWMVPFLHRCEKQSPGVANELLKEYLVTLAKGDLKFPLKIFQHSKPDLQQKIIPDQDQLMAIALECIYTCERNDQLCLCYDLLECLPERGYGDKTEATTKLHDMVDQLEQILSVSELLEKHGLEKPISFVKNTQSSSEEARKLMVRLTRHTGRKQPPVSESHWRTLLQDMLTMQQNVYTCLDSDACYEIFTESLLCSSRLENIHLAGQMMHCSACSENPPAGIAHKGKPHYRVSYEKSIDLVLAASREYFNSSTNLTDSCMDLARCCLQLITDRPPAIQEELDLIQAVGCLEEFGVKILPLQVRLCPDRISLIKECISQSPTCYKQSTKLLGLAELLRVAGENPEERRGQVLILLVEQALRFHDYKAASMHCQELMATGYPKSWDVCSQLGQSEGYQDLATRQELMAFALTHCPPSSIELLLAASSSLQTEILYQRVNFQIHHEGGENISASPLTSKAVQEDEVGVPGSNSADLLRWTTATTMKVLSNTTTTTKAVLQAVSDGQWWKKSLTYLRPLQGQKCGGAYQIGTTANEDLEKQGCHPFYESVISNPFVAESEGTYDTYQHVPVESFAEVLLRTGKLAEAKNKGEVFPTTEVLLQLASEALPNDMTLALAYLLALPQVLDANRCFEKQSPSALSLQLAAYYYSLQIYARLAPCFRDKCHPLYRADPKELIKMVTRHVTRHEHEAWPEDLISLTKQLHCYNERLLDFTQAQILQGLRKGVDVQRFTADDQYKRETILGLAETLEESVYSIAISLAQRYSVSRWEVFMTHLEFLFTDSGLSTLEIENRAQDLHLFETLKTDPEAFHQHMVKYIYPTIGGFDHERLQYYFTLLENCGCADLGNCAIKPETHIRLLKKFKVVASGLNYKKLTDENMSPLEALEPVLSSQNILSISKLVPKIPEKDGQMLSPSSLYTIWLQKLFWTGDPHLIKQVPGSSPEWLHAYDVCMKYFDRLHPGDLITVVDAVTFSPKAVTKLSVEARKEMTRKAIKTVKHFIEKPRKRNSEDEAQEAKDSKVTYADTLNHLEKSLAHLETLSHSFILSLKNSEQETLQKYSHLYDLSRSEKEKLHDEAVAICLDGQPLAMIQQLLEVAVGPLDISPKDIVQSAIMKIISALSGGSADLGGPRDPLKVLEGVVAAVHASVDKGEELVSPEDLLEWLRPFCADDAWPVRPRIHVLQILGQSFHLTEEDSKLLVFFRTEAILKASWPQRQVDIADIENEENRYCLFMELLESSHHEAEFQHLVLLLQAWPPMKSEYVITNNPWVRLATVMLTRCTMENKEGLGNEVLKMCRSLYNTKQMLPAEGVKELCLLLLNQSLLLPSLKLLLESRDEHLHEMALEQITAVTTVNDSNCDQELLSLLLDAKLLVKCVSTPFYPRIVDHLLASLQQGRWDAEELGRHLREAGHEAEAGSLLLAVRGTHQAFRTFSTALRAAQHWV

Key:
Experiment in all cases: log2 fold change, soluble protein after heating vs DMSO (PISA); higher = thermal stabilisation; K562 cells, 10 uM, 30 min; active = over 0.2 and 3.5 SD of the protein, either way, in both replicates (recomputed)
erlotinib = compound: C#Cc1cccc(Nc2ncnc3cc(OCCOC)c(OCCOC)cc23)c1 [erlotinib]
Method in brief: (§1)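 Thermal stability values are relative to control samples and come from duplicates. They are expressed as log2 fold changes. For measurement, K562 cells (2×10^6 cells/mL) received 10 μM compound for 30 min, and aliquots were heated for 3 min over 48°C-58°C, pooled, and extracted at 4°C in PBS with 0.5% NP-40. Soluble protein, the supernatant after 21,000xg for 90 min, was quantified by TMTpro 16plex LC-MS/MS with equalised channel sums.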

[1] = compound: C/C(=N\NC(=O)C1=CC(=CC=C1)S(=O)(=O)N2CCOCC2)/C3=C(C=CC(=C3)Cl)O
Method in brief: as §1

[2] = compound: C1=CC(=C(C=C1Cl)C2=NC3=NC=CN=C3C(=N2)NC4=CC=NC=C4)F
Method in brief: as §1

[3] = compound: C1=CC(=CC=C1C2=NC3=C(N2)C=C(C=C3)C(=O)N)OC4=CC=C(C=C4)Cl
Method in brief: as §1

[4] = compound: C1=CC2=C(C=CC(=C2)/C=C\3/C(=O)NC(=NCC4=CC=CS4)S3)N=C1
Method in brief: as §1

[5] = compound: C1=CC2=NC=CN=C2C=C1/C=C/3\C(=O)NC(=O)S3
Method in brief: as §1

[6] = compound: C1=CC=C(C=C1)C2=NC(=C(N2)C3=CC=NC=C3)C4=CC(=C(C=C4)Cl)O
Method in brief: as §1

[7] = compound: C1=CC=C2C(=C1)C3=NNC4=CC=CC(=C43)C2=O
Method in brief: as §1

[8] = compound: C1CCN(C1)C(=O)NC2=CC=CC(=C2)NC3=NC=C(C(=N3)NCCC4=CN=CN4)Br
Method in brief: as §1

[9] = compound: C1CN(CCC1(CC2=CC=C(C=C2)Cl)N)C3=NC=NC4=C3C=CN4
Method in brief: as §1

IRAK-1-4 Inhibitor I = compound: C1COCCN1CCN2C3=CC=CC=C3N=C2NC(=O)C4=CC(=CC=C4)[N+](=O)[O-] [IRAK-1-4 Inhibitor I]
Method in brief: as §1

ibrutinib = compound: C=CC(=O)N1CCC[C@@H](n2nc(-c3ccc(Oc4ccccc4)cc3)c3c(N)ncnc32)C1 [ibrutinib]
Method in brief: as §1

[10] = compound: CC(=O)c1cnc2ccc(-c3cc(Cl)c(O)c(Cl)c3)nc2c1N[C@H]1CC[C@H](CN(C)C)CC1
Method in brief: as §1

ralimetinib = compound: CC(C)(C)Cn1c(N)nc2ccc(-c3[nH]c(C(C)(C)C)nc3-c3ccc(F)cc3)nc21 [ralimetinib]
Method in brief: as §1

[11] = compound: CC(C)(O)CC(=O)NCCn1ccc2ncnc(Nc3ccc(Oc4cccc(C(F)(F)F)c4)c(Cl)c3)c21
Method in brief: as §1

[12] = compound: CC(C)C1=C2N=C(C=C(N2N=C1)NCC3=CC=CC=C3)NCCCCCCN
Method in brief: as §1

[13] = compound: CC(C)C[C@@H](C=O)NC(=O)[C@H](CC(C)C)NC(=O)[C@H](CC(C)C)NC(=O)OCc1ccccc1
Method in brief: as §1

pinometostat = compound: CC(C)N(C[C@H]1O[C@@H](n2cnc3c(N)ncnc32)[C@H](O)[C@@H]1O)[C@H]1C[C@@H](CCc2nc3cc(C(C)(C)C)ccc3[nH]2)C1 [pinometostat]
Method in brief: as §1

[14] = compound: CC1=C(C(CC(=O)N1)C2=CC=C(C=C2)C(F)(F)F)C(=O)NC3=C(C=C4C(=C3)C=NN4)F
Method in brief: as §1

[15] = compound: CC1=C(C2=C(C=C1)C(=O)C3=CC=CC=C3N2CCCN)C
Method in brief: as §1

Target	log2 fold change (erlotinib)	log2 fold change [1]	log2 fold change [2]	log2 fold change [3]	log2 fold change [4]	log2 fold change [5]	log2 fold change [6]	log2 fold change [7]	log2 fold change [8]	log2 fold change [9]	log2 fold change (IRAK-1-4 Inhibitor I)	log2 fold change (ibrutinib)	log2 fold change [10]	log2 fold change (ralimetinib)	log2 fold change [11]	log2 fold change [12]	log2 fold change [13]	log2 fold change (pinometostat)	log2 fold change [14]	log2 fold change [15]
NAT10 (UniProt Q9H0A0)	inactive: -0.265	inactive: -0.188	inactive: -0.417	inactive: 0.043	inactive: 0	inactive: 0.029	inactive: 0.012	inactive: 0.01	inactive: 0.076	inactive: -0.061	inactive: -0.114	inactive: -0.009	inactive: 0.079	inactive: 0.09	inactive: 0	inactive: 0.051	inactive: 0.212	inactive: 0.32	inactive: -0.163	inactive: -0.213
NEBL isoform 2 (UniProt O76041)	inactive: 0.074	inactive: -0.04	inactive: 0.024	inactive: -0.011	inactive: 0.028	inactive: 0.031	inactive: 0.003	inactive: -0.063	inactive: 0.046	inactive: 0.034	inactive: 0.015	inactive: 0.012	inactive: -0.013	inactive: 0.017	inactive: 0.014	inactive: 0.036	inactive: 0.009	inactive: -0.065	inactive: 0.006	inactive: 0.004
NDUFB4 (UniProt O95168)	inactive: -0.016	inactive: -0.043	inactive: 0.015	inactive: 0.045	inactive: -0.019	inactive: -0.079	inactive: 0.019	inactive: 0.005	inactive: 0.019	inactive: -0.004	inactive: 0.014	inactive: 0.05	inactive: 0.02	inactive: -0.03	inactive: -0.083	inactive: -0.065	inactive: 0.084	inactive: -0.048	inactive: 0.002	inactive: 0.036
NDUFAF1 (UniProt Q9Y375)	inactive: 0.009	inactive: -0.06	inactive: 0.084	inactive: -0.037	inactive: 0.025	inactive: 0.065	inactive: -0.038	inactive: 0.008	inactive: 0.023	inactive: 0.019	inactive: 0.02	inactive: 0.045	inactive: 0.004	inactive: -0.04	inactive: -0.047	inactive: 0.004	inactive: 0.017	inactive: -0.053	inactive: 0.017	inactive: -0.021
NECAP1 (UniProt Q8NC96)	inactive: 0.034	inactive: 0.047	inactive: 0.046	inactive: 0.009	inactive: 0.067	inactive: 0.029	inactive: -0.029	inactive: -0.081	inactive: -0.027	inactive: 0.002	inactive: 0.006	inactive: 0.005	inactive: -0.082	inactive: 0.019	inactive: -0.013	inactive: 0.02	inactive: 0.009	inactive: -0.034	inactive: 0.02	inactive: -0.013
MZT2B (UniProt Q6NZ67)	inactive: 0.03	inactive: -0.134	inactive: -0.016	inactive: 0.01	inactive: -0.112	inactive: 0.133	inactive: -0.018	inactive: 0.066	inactive: -0.059	inactive: -0.099	inactive: -0.073	inactive: -0.039	inactive: 0.061	inactive: 0.062	inactive: -0.025	inactive: 0.053	inactive: 0.027	inactive: 0.005	inactive: 0.109	inactive: 0.108
NBAS (UniProt A2RRP1)	inactive: 0.049	inactive: 0.003	inactive: -0.249	inactive: -0.012	inactive: 0.066	inactive: -0.021	inactive: 0.023	inactive: 0.023	inactive: -0.031	inactive: -0.192	inactive: -0.387	inactive: 0.033	inactive: 0.044	inactive: 0.198	inactive: -0.001	inactive: -0.33	inactive: 0.123	inactive: 0.423	inactive: -0.085	inactive: -0.055
NCOR1 (UniProt O75376)	inactive: -0.057	inactive: 0.021	inactive: -0.034	inactive: 0.041	inactive: 0.08	inactive: 0.026	inactive: 0.044	inactive: -0.21	inactive: -0.055	inactive: -0.051	inactive: 0.052	inactive: 0.078	active: -0.46	inactive: 0.01	inactive: 0.011	inactive: 0.055	inactive: 0.022	inactive: 0.05		inactive: 0.093
